# Assay results from PubChem BioAssay (EPA / NIEHS).
# The chains behind the UniProt entries cited, without tags or fusion partners. Where a name states a change or a piece, a line headed by the entry shows the natural chain unless it says otherwise.
# UniProt Q9UNQ0: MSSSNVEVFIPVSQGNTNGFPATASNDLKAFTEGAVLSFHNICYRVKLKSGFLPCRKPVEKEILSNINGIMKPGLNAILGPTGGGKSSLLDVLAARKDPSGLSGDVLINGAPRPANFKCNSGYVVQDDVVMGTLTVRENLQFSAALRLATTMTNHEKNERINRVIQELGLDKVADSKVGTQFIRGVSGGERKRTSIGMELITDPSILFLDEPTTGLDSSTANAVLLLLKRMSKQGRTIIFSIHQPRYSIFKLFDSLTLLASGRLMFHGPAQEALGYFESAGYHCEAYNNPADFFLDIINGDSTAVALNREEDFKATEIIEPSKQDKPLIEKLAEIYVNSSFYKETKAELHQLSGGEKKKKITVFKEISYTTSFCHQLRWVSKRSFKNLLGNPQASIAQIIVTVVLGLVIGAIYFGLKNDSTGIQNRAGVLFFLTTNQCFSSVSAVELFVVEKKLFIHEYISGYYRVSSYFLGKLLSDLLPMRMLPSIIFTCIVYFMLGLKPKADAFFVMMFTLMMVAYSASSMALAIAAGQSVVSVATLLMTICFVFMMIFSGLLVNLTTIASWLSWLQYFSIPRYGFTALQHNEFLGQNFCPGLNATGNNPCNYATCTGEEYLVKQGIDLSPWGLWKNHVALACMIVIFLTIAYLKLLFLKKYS
# The inconclusive results got no clear call from the source; some entries with a clear call stand among them for comparison. For some assays here: Potencies of inconclusive entries are doubtful fits and often do not repeat. Activity calls are given as the source filed them. Rule for the calls: active = hit-call score of the fitted dose curve at least 0.9, where 1 is the maximum; inconclusive = response in the unintended direction; inactive = score below 0.9.
# How the values were obtained:
# [1] = Tanguay_ZF_120hpf_CFIN_legacy: (Legacy) Oregon State University Tanguay Lab 120 Hour Post-fertilization zebrafish Assay for Caudal Fin Malformation (AID 2283649)
# In short: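 Binary brightfield scoring of caudal fin defects at 120 hpf after static, light-shielded exposure at 28C from 6 hpf. Tropical 5D embryos, chorion removed with pronase at 4 hpf, final DMSO 0.64%.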
# [2] = Tanguay_ZF_120hpf_TR_legacy: (Legacy) Oregon State University Tanguay Lab 120 Hour Post-fertilization zebrafish Assay for Touch Response (AID 2283667)
# In short: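 5D WT embryos; static exposure to 120 hpf, 28C, sealed/dark; DMSO 0.64% v/v final. TR scored present/absent; dead embryos excluded. Pos ctrl 5uM trimethyltin chloride.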
# [3] = Tanguay_ZF_120hpf_PIG_legacy: (Legacy) Oregon State University Tanguay Lab 120 Hour Post-fertilization zebrafish Assay for Pigmentation Malformation (AID 2283650)
# In short: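 Pronase dechorionation at 4 hpf; embryos plated at 6 hpf, one per well; static exposure, sealed and foil-covered, 28C, to 120 hpf; pigmentation read by brightfield, binary; DMSO 0.64% baseline, 5uM trimethyltin chloride positive control.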
# [4] = Tanguay_ZF_120hpf_SWIM_legacy: (Legacy) Oregon State University Tanguay Lab 120 Hour Post-fertilization zebrafish Assay for Swim Bladder Malformation (AID 2283654);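 note: swim bladder malformation in each larva scored yes or no under brightfield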
# In short: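 Embryos lacking chorions were exposed individually and statically to test chemical from 6 to 120 hpf at 28C, with 0.64% DMSO as vehicle. At 120 hpf, swim bladder malformation was recorded as present or absent by brightfield microscopy.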
# [5] = Tanguay_ZF_120hpf_NC_legacy: (Legacy) Oregon State University Tanguay Lab 120 Hour Post-fertilization zebrafish Assay for Notochord and Tail Malformation (AID 2283656)
# In short: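 Dechorionated 5D zebrafish, 1/well from 6 hpf; static exposure to 120 hpf, 28C, sealed, dark; final DMSO 0.64% v/v. NC scored binary (present/absent); dead embryos not scored. Fit vs DMSO baseline, gain direction.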
# [6] = Tanguay_ZF_120hpf_CIRC_legacy: (Legacy) Oregon State University Tanguay Lab 120 Hour Post-fertilization zebrafish Assay for Circulatory Malformation (AID 2283651)
# In short: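 Using wild-type Tropical 5D zebrafish, we exposed dechorionated embryos from 6 to 120 hpf in embryo medium with 0.64% DMSO. Circulatory defects were scored as present or absent; 5uM trimethyltin chloride served as positive control.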
# [7] = read-out: ABC Transporter (ABCB1), ABCB1 (gene 5243); assay: CLD_ABCB1_6hr: CellzDirect (CLD) Gene Expression Assay for ABC Transporter (ABCB1) at 6 hours (AID 2283659)
# In short: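 Primary human hepatocytes (two donor preparations) dosed daily for two days with chemicals at multiple concentrations, 0.2% DMSO vehicle; harvested 6 h post-dose. ABCB1 mRNA induction quantified by qNPA chemiluminescence; gain-of-signal fitted versus DMSO.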
# [8] = read-out: xenobiotic metabolism (CYP2C9), CYP2C9 (gene 1559); assay: CLD_CYP2C9_6hr: CellzDirect (CLD) Gene Expression Assay for xenobiotic metabolism (CYP2C9) at 6 hours (AID 2283664)
# In short: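 Primary human hepatocytes dosed daily with test chemicals at multiple concentrations; harvested at 6 h. CYP2C9 mRNA induction measured by qNPA chemiluminescence. Gain of signal fitted against 0.2% DMSO vehicle; cytotoxicity annotated from phase-contrast morphology.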
# [9] = read-out: Broad substrate specificity ATP-binding cassette transporter ABCG2 (Homo sapiens) (UniProt Q9UNQ0); assay: CLD_ABCG2_6hr: CellzDirect (CLD) Gene Expression Assay for ABC Transporter (ABCG2) at 6 hours (AID 2283660)
# In short: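 Primary human hepatocytes dosed daily with chemicals at multiple concentrations (0.2% DMSO vehicle), harvested 6 h after dosing. ABCG2 mRNA induction read by quantitative nuclease protection assay (qNPA) chemiluminescence; gain of signal fitted against DMSO baseline.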
# [10] = read-out: xenobiotic metabolism (CYP1A1), CYP1A1 (gene 1543); assay: CLD_CYP1A1_6hr: CellzDirect (CLD) Gene Expression Assay for xenobiotic metabolism (CYP1A1) at 6 hours (AID 2283661);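 note: potency for transcript induction above DMSO vehicle baseline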
# In short: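 Primary human hepatocytes from two donors, compound versus 0.2% DMSO vehicle. CYP1A1 mRNA measured 6 h after dosing by quantitative nuclease protection assay with chemiluminescent read-out; induction fitted relative to DMSO, cytotoxicity flagged by microscopy.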
# [11] = read-out: alkyl and aryl transferase (GSTA2), GSTA2 (gene 2939); assay: CLD_GSTA2_6hr: CellzDirect (CLD) Gene Expression Assay for alkyl and aryl transferase (GSTA2) at 6 hours (AID 2283666)
# In short: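 Primary human hepatocytes from two donor preparations were dosed daily with fresh compound at multiple concentrations, 0.2% DMSO vehicle. GSTA2 mRNA was measured at 6 hours by qNPA chemiluminescence; induction fitted relative to DMSO, with cytotoxicity flagged morphologically.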
# [12] = read-out: sulfotransferase (SULT2A), SULT2A1 (gene 6822); assay: CLD_SULT2A_6hr: CellzDirect (CLD) Gene Expression Assay for sulfotransferase (SULT2A) at 6 hours (AID 2283669);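 note: hits raise transcript level above the DMSO vehicle baseline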
# In short: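 Primary human hepatocytes from two donor preparations were dosed daily with chemicals or 0.2% DMSO and harvested at 6 h. Transcript induction read by qNPA chemiluminescence, fitted for gain of signal relative to DMSO; morphology-based cytotoxicity annotated.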
# [13] = Tanguay_ZF_120hpf_TRUN_legacy: (Legacy) Oregon State University Tanguay Lab 120 Hour Post-fertilization zebrafish Assay for Truncated Body (AID 2283655)
# In short: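 Binary presence/absence of truncated body is recorded at 120 hpf by brightfield, with non-mortality endpoints skipped after death. Exposure is static from 6 hpf in sealed dark plates at 28C, using dechorionated wild-type zebrafish, 0.64% DMSO.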
# [14] = CCTE_Simmons_CellTiterGLO_HEK293T: Viability Assessment in CCTE's Assays for Thyroperoxidase (TPO) Inhibition, Simmons Lab (AID 2283665)
# In short: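 Cytotoxicity counter-screen: human HEK293T cells in low-serum (1% FBS) medium receive test chemical, 5 nM to 87.5 uM final, for 24 h; ATP is quantified by luciferase luminescence.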
smiles,measurement,setting,value
O=C(Oc1ccccc1)c1cccc(C(=O)Oc2ccccc2)c1,outcome,[1],inactive
same,outcome,[2],inactive
NCCOCCOCCN,AC50,[3],inconclusive: 25.1 µM
same,outcome,[4],inactive
same,AC50,[5],inconclusive: 42.6 µM
same,AC50,[2],inconclusive: 13.9 µM
NNC(=O)c1ccncc1,outcome,[1],inactive
same,AC50,[6],inconclusive: 1.27 µM
CCSC(=O)N(CC(C)C)CC(C)C,AC50,[6],inconclusive: 34.4 µM
same,AC50,[7],inconclusive: 20 µM
same,AC50,[8],inconclusive: 0.0004 µM
OB(O)O,outcome,[3],inactive
same,AC50,[7],inconclusive: 20 µM
same,outcome,[9],inactive
same,AC50,[10],inconclusive: 1.84 µM
same,AC50,[8],inconclusive: 0.00566 µM
same,AC50,[11],inconclusive: 20 µM
same,AC50,[12],inconclusive: 20 µM
CCOC(=O)C(C)Oc1ccc(Oc2nc3ccc(Cl)cc3o2)cc1 (centres undefined),AC50,[1],inconclusive: 123 µM
same,AC50,[9],inconclusive: 20 µM
same,AC50,[8],inconclusive: 2.91 µM
same,outcome,[11],inactive
same,outcome,[2],inactive
same,outcome,[12],inactive
C1CCC(SSC2CCCCC2)CC1,AC50,[3],inconclusive: 172 µM
same,AC50,[6],inconclusive: 5 µM
same,AC50,[4],inconclusive: 28.4 µM
same,AC50,[2],inconclusive: 2.84 µM
C/C=C/c1ccc(OC)cc1,AC50,[6],inconclusive: 0.895 µM
same,AC50,[2],inconclusive: 200 µM
C1N2CN3CN1CN(C2)C3,outcome,[1],inactive
same,AC50,[3],inconclusive: 27 µM
same,AC50,[13],inconclusive: 4.86 µM
same,outcome,[5],inactive
same,outcome,[2],inactive
COc1cc(C(=O)NC2CCN(C)CC2)ccc1Nc1ncc2c(n1)N(C1CCCC1)CC(F)(F)C(=O)N2C,AC50,[6],inconclusive: 183 µM
same,AC50,[13],active: 31 µM
same,AC50,[5],active: 33 µM
same,AC50,[2],active: 36.1 µM
Cc1ccc(S(=O)(=O)NC(=O)NN2CCCCCC2)cc1,outcome,[3],inactive
C[C@@H](Oc1ccc(CNC(=O)c2cccnc2Oc2ccc3c(c2)OCO3)c(F)c1)C(=O)O,AC50,[6],inconclusive: 16.4 µM
same,AC50,[5],inconclusive: 2.05 µM
O=C(O)c1cccc(N(Cc2cccnc2)c2ccc(OC(F)F)c(OC(F)F)c2)c1,AC50,[3],inconclusive: 8.72 µM
same,outcome,[6],inactive
same,outcome,[14],inactive
CCOC(=O)c1ccc(C2CCC(NC[C@H](O)COc3ccc(O)c(NS(C)(=O)=O)c3)CC2)cc1 (some centres undefined),AC50,[3],inconclusive: 45.2 µM
same,AC50,[6],inconclusive: 24.2 µM
same,AC50,[4],inconclusive: 0.000179 µM
same,AC50,[13],inconclusive: 132 µM
same,outcome,[2],inactive
CCOC(=O)CCC(=O)OCC,outcome,[6],inactive
CCCCCCC(=O)OCC,AC50,[1],inconclusive: 21.4 µM
same,AC50,[2],inconclusive: 11.3 µM
O=C(NS(=O)(=O)/C=C/c1cccs1)c1ccc(F)cc1Br,AC50,[6],inconclusive: 94.3 µM
c1ccc(C[n+]2cccc3ccccc32)cc1,outcome,[6],inactive
same,AC50,[4],inconclusive: 159 µM
O=C(O)c1cccnc1,AC50,[1],inconclusive: 101 µM
same,AC50,[3],inconclusive: 89.3 µM
same,AC50,[2],inconclusive: 202 µM
Cc1nc(-c2ccc3c(c2)CCN(CCC2CCC(NC(=O)/C=C/c4ccc(F)cc4)CC2)CC3)no1 (centres undefined),outcome,[6],inactive
CCC(C)c1ccccc1O (centres undefined),AC50,[6],inconclusive: 1.62 µM
CCCOc1sc(C(=O)N2CCC(c3cc(CN)ccc3F)CC2)c(C)c1Br,AC50,[1],inconclusive: 3.43 µM
same,AC50,[3],inconclusive: 18.2 µM
same,outcome,[13],inactive
same,AC50,[5],inconclusive: 6.37 µM
same,AC50,[2],inconclusive: 1.27 µM
OC[C@H]1O[C@@](CO)(O[C@H]2O[C@H](CO)[C@@H](O)[C@H](O)[C@H]2O)[C@@H](O)[C@@H]1O,AC50,[1],inconclusive: 78.4 µM
same,AC50,[6],inconclusive: 4.45 µM
CN1CCC[C@H]1c1cccnc1,outcome,[3],inactive
same,AC50,[6],inconclusive: 40.5 µM
COC(=O)CCCC(=O)OC,AC50,[3],inconclusive: 0.262 µM
CC(C)c1nnc2ccc(-c3ocnc3-c3cc(F)ccc3F)cn12,outcome,[3],inactive
Cc1occc1C(=O)Nc1ccc(C(=O)N2CCC(F)(F)/C(=C\C(=O)N3CCC(N4CCCCC4)CC3)c3ccccc32)cc1,AC50,[6],inconclusive: 9.1 µM
same,AC50,[4],inconclusive: 36.5 µM

# An excerpt of these results, tab-delimited:
smiles	measurement	setting	value
CCSC(=O)N(CC(C)C)CC(C)C	AC50	[6]	inconclusive: 34.4 µM
same	AC50	[7]	inconclusive: 20 µM
same	AC50	[8]	inconclusive: 0.0004 µM
OB(O)O	outcome	[3]	inactive
same	AC50	[7]	inconclusive: 20 µM
same	outcome	[9]	inactive
same	AC50	[10]	inconclusive: 1.84 µM
same	AC50	[8]	inconclusive: 0.00566 µM
same	AC50	[11]	inconclusive: 20 µM
same	AC50	[12]	inconclusive: 20 µM
CCOC(=O)C(C)Oc1ccc(Oc2nc3ccc(Cl)cc3o2)cc1 (centres undefined)	AC50	[1]	inconclusive: 123 µM
same	AC50	[9]	inconclusive: 20 µM
same	AC50	[8]	inconclusive: 2.91 µM
same	outcome	[11]	inactive

# Two entries drawn at random from those above:
smiles,measurement,setting,value
C1N2CN3CN1CN(C2)C3,AC50,[13],inconclusive: 4.86 µM
C/C=C/c1ccc(OC)cc1,AC50,[2],inconclusive: 200 µM
